Drawing on paper PMC3176313, this text covers binding for two molecules.

Protein sequences, listed by entry. Tags and fused reporters are not part of them.
UniProt P10964: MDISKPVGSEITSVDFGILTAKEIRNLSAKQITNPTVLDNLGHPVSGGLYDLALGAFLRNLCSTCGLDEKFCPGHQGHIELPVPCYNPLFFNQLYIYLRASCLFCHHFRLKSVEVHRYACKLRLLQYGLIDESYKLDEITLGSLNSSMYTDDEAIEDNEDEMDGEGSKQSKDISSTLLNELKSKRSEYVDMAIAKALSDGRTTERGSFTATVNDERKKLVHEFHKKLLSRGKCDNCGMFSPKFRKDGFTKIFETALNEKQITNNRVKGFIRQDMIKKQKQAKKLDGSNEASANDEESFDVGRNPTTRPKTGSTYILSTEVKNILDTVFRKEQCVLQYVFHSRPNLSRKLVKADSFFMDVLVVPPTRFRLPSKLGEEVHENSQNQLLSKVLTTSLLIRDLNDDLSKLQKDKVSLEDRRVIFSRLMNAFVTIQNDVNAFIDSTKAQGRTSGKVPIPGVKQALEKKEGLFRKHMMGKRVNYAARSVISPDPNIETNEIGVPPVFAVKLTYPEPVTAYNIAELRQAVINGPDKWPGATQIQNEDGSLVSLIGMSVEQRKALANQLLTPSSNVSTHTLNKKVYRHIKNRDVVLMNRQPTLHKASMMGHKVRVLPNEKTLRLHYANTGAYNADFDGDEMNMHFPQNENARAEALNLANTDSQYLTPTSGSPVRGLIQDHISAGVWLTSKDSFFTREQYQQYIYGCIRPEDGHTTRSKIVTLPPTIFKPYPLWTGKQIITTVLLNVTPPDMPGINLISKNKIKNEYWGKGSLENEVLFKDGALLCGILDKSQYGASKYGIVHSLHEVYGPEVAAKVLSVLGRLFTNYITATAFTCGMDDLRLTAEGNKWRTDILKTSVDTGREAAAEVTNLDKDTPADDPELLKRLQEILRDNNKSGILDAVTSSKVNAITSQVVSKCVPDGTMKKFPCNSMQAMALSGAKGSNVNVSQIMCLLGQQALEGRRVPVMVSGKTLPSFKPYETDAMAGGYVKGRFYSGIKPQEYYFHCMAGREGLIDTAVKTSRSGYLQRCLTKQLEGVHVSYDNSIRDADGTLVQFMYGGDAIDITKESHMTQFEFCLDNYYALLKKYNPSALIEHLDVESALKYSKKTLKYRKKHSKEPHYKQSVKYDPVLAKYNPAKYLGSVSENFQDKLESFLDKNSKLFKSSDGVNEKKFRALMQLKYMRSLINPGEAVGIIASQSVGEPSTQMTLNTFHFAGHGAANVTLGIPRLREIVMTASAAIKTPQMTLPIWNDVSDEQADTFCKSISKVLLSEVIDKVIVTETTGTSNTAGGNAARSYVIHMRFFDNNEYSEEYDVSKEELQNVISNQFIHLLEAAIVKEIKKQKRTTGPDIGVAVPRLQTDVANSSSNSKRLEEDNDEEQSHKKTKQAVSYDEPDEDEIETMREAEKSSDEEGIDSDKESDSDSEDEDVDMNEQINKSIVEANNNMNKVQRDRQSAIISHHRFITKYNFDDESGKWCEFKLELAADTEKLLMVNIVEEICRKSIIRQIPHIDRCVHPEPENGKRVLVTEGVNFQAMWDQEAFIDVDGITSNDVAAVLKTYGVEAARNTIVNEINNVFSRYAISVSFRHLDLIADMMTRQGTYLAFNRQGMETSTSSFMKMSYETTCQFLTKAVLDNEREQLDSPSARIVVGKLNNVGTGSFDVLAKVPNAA

No constants are given. Whether binding was seen depends on the method and setting. Binding seen in cells or lysates may run through a third protein. Some entries that bind do so weakly or less than the wild type. Where a sequence is shown, tags or fusion partners need not be part of it.

Test in all cases: co-IP; glass-bead yeast lysates in IP buffer (20 mM HEPES pH 7.5, EDTA, 100 mM NaCl, 20% glycerol, 0.05% NP-40); TAP-tagged bait captured on IgG-coated magnetic beads, 2 h at 21°C; washes with IP buffer supplemented with 150 mM NaCl; HA-tagged prey detected by Western blot
For orientation: Immunoblotting shows a protein as a band on a membrane.

The target of experiment [1] is T1, Spt5-TAP fusion (budding yeast) (UniProt P27692).
T1 sequence: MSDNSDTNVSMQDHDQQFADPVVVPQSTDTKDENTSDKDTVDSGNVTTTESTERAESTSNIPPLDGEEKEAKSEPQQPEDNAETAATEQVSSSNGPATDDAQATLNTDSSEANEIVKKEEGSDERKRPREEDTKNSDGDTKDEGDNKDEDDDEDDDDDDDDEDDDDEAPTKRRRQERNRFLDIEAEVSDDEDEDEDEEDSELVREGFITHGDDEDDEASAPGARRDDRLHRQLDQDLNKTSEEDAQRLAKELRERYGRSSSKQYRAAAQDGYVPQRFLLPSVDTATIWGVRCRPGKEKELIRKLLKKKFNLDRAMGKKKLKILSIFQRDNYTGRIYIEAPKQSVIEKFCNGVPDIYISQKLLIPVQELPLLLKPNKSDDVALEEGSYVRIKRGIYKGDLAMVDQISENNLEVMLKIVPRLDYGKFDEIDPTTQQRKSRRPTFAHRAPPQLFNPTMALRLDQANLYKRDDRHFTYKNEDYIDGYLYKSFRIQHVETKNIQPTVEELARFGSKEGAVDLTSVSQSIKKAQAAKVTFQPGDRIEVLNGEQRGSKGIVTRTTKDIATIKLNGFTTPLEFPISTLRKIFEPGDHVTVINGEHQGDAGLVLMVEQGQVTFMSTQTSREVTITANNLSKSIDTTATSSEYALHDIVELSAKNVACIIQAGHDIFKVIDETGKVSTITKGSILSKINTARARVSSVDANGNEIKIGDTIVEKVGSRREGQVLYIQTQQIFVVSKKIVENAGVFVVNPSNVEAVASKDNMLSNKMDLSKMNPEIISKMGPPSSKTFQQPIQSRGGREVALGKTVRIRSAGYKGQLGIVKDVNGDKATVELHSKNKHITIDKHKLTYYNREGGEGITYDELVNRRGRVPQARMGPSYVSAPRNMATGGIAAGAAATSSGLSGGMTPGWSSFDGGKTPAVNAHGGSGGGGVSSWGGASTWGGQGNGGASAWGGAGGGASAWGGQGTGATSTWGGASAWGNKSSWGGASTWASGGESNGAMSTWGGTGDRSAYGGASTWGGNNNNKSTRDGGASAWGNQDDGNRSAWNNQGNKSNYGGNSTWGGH

Experiment [2] addresses Rpa190-TAP (budding yeast) (UniProt P10964).
A further experiment has as its target T2, Nrd1-TAP (budding yeast) (UniProt P53617).
T2 sequence: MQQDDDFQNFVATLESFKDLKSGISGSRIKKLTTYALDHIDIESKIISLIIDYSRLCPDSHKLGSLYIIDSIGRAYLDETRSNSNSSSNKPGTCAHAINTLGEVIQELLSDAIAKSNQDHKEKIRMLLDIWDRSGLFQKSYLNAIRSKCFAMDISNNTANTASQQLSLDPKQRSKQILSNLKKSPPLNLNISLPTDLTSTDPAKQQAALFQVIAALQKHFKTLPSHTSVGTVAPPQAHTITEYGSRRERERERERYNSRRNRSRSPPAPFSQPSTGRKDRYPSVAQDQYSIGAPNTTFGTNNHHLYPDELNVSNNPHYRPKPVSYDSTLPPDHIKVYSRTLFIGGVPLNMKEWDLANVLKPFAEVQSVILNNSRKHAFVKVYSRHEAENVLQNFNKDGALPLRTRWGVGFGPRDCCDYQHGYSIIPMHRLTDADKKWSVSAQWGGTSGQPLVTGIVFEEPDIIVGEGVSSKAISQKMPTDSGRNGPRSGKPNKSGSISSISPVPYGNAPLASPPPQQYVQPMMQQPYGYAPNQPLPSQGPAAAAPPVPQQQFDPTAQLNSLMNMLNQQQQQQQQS

B1: Nrd1-HA fusion (protein, UniProt P53617 1-575)
chain: MQQDDDFQNFVATLESFKDLKSGISGSRIKKLTTYALDHIDIESKIISLIIDYSRLCPDSHKLGSLYIIDSIGRAYLDETRSNSNSSSNKPGTCAHAINTLGEVIQELLSDAIAKSNQDHKEKIRMLLDIWDRSGLFQKSYLNAIRSKCFAMDISNNTANTASQQLSLDPKQRSKQILSNLKKSPPLNLNISLPTDLTSTDPAKQQAALFQVIAALQKHFKTLPSHTSVGTVAPPQAHTITEYGSRRERERERERYNSRRNRSRSPPAPFSQPSTGRKDRYPSVAQDQYSIGAPNTTFGTNNHHLYPDELNVSNNPHYRPKPVSYDSTLPPDHIKVYSRTLFIGGVPLNMKEWDLANVLKPFAEVQSVILNNSRKHAFVKVYSRHEAENVLQNFNKDGALPLRTRWGVGFGPRDCCDYQHGYSIIPMHRLTDADKKWSVSAQWGGTSGQPLVTGIVFEEPDIIVGEGVSSKAISQKMPTDSGRNGPRSGKPNKSGSISSISPVPYGNAPLASPPPQQYVQPMMQQPYGYAPNQPLPSQGPAAAAPPVPQQQFDPTAQLNSLMNMLNQQQQQQQQS
On to B1, for which the binding entry in experiment [1] was “binds”.

B2: full-length Spt5-HA fusion (protein, UniProt P27692 1-1063)
chain: MSDNSDTNVSMQDHDQQFADPVVVPQSTDTKDENTSDKDTVDSGNVTTTESTERAESTSNIPPLDGEEKEAKSEPQQPEDNAETAATEQVSSSNGPATDDAQATLNTDSSEANEIVKKEEGSDERKRPREEDTKNSDGDTKDEGDNKDEDDDEDDDDDDDDEDDDDEAPTKRRRQERNRFLDIEAEVSDDEDEDEDEEDSELVREGFITHGDDEDDEASAPGARRDDRLHRQLDQDLNKTSEEDAQRLAKELRERYGRSSSKQYRAAAQDGYVPQRFLLPSVDTATIWGVRCRPGKEKELIRKLLKKKFNLDRAMGKKKLKILSIFQRDNYTGRIYIEAPKQSVIEKFCNGVPDIYISQKLLIPVQELPLLLKPNKSDDVALEEGSYVRIKRGIYKGDLAMVDQISENNLEVMLKIVPRLDYGKFDEIDPTTQQRKSRRPTFAHRAPPQLFNPTMALRLDQANLYKRDDRHFTYKNEDYIDGYLYKSFRIQHVETKNIQPTVEELARFGSKEGAVDLTSVSQSIKKAQAAKVTFQPGDRIEVLNGEQRGSKGIVTRTTKDIATIKLNGFTTPLEFPISTLRKIFEPGDHVTVINGEHQGDAGLVLMVEQGQVTFMSTQTSREVTITANNLSKSIDTTATSSEYALHDIVELSAKNVACIIQAGHDIFKVIDETGKVSTITKGSILSKINTARARVSSVDANGNEIKIGDTIVEKVGSRREGQVLYIQTQQIFVVSKKIVENAGVFVVNPSNVEAVASKDNMLSNKMDLSKMNPEIISKMGPPSSKTFQQPIQSRGGREVALGKTVRIRSAGYKGQLGIVKDVNGDKATVELHSKNKHITIDKHKLTYYNREGGEGITYDELVNRRGRVPQARMGPSYVSAPRNMATGGIAAGAAATSSGLSGGMTPGWSSFDGGKTPAVNAHGGSGGGGVSSWGGASTWGGQGNGGASAWGGAGGGASAWGGQGTGATSTWGGASAWGNKSSWGGASTWASGGESNGAMSTWGGTGDRSAYGGASTWGGNNNNKSTRDGGASAWGNQDDGNRSAWNNQGNKSNYGGNSTWGGH
For the molecule B2, the binding entry (in experiment [2]; in the experiment with Nrd1-TAP (budding yeast)) was “binds” in each case.
